Taken from: PubChem BioAssay AID743121 (NCATS, 2013)

Assay: 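Knock-downs that sensitise breast cancer cells to camptothecin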 (primary screen)
Cell system: MDA-MB-231 cells, a human breast cancer line
Knock-down reagent: single siRNA against human genes, 20 nM siRNA (0.8 pmol per well)
Timing: 120 h (drug added 48 h after transfection, read 72 h later)
Conditions: camptothecin 20 nM (about EC30) for 72 h; vehicle 0.1% DMSO in parallel plates
Measured: 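CellTiter-Glo ATP signal, scaled to control siRNA as percent viability; sensitisation given as log2 of untreated divided by camptothecin-treated viability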
Reading the numbers: log2 vehicle/camptothecin viability: higher = stronger sensitisation to camptothecin; viability with camptothecin: higher = more viable cells
Call rule: 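Active genes have an RSA gene-level p-value below 0.001, computed from the ratios of their separate siRNAs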
In all, the deposit lists about 26,000 reagents; this is an unselected part. 167 of all reagents (0.63%) were called active. 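Calls are per gene from RSA p-values that are not deposited; an individual active-marked siRNA can sensitise only weakly.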 The numbers tell different reagents against one gene apart. Further read-outs or replicates are left out here.

target	reagent	log2 vehicle/camptothecin viability	viability with camptothecin (% of control)	outcome
HGS (hepatocyte growth factor-regulated tyrosine kinase substrate)	1	0.353	30	inactive
HGS (hepatocyte growth factor-regulated tyrosine kinase substrate)	2	-0.395	94.9	inactive
HGS (hepatocyte growth factor-regulated tyrosine kinase substrate)	3	-0.423	88.4	inactive
HGS (hepatocyte growth factor-regulated tyrosine kinase substrate)	4	0.123	69.1	inactive
KIF4A (kinesin family member 4A)	1	0.0896	64.2	inactive
KIF4A (kinesin family member 4A)	2	-0.0847	101	inactive
KIF4A (kinesin family member 4A)	3	0.168	86.6	inactive
KIF4A (kinesin family member 4A)	4	0.0733	112	inactive
NRP1 (neuropilin 1)	1	-0.0755	78.7	inactive
NRP1 (neuropilin 1)	2	-0.115	82.9	inactive
NRP1 (neuropilin 1)	3	-0.0558	69	inactive
NRP1 (neuropilin 1)	4	-0.301	67.2	inactive
DGCR2 (DiGeorge syndrome critical region gene 2)	1	-0.855	97.6	inactive
DGCR2 (DiGeorge syndrome critical region gene 2)	2	0.0652	67	inactive
DGCR2 (DiGeorge syndrome critical region gene 2)	3	0.49	75.1	inactive
DGCR2 (DiGeorge syndrome critical region gene 2)	4	-0.126	112	inactive
SAA1 (serum amyloid A1)	1	-0.514	65.5	inactive
SAA1 (serum amyloid A1)	2	0.0908	65.8	inactive
HEG1 (heart development protein with EGF like domains 1)	1	-0.422	70.4	inactive
HEG1 (heart development protein with EGF like domains 1)	2	0.206	63.7	inactive
HEG1 (heart development protein with EGF like domains 1)	3	-0.303	94.3	inactive
HEG1 (heart development protein with EGF like domains 1)	4	-0.307	71.7	inactive
NUAK2 (NUAK family kinase 2)	1	-0.426	88.5	inactive
NUAK2 (NUAK family kinase 2)	2	-0.104	67.6	inactive
NUAK2 (NUAK family kinase 2)	3	0.0436	88.4	inactive
NUAK2 (NUAK family kinase 2)	4	-0.433	78.3	inactive
TST (thiosulfate sulfurtransferase)	1	-0.445	81.7	inactive
TST (thiosulfate sulfurtransferase)	2	-0.151	70.4	inactive
TST (thiosulfate sulfurtransferase)	3	-0.341	101	inactive
TST (thiosulfate sulfurtransferase)	4	0.667	54.2	inactive

A stretch taken from the entries so far, for reference:
target	reagent	log2 vehicle/camptothecin viability	viability with camptothecin (% of control)	outcome
DGCR2 (DiGeorge syndrome critical region gene 2)	4	-0.126	112	inactive
SAA1 (serum amyloid A1)	1	-0.514	65.5	inactive
